In article PMC4838231 one finds binding data, which are given here for three molecules.

Results are given in words; binding and its absence hold for the method and conditions named. For part of these data: In cells and extracts the contact can be indirect. For part of these data: Binding calls can cover weak binding; strength is not graded here. Tags and fused reporters may be left off the sequences shown.

Test [1] has as its target Kin2-N1 (N-terminal region of Kin2), Gal4 DNA-binding domain fusion (S. cerevisiae). Briefly: two-hybrid; directed assay: pJ69-4α with pGBDU-C1-based baits mated with pJ69-4A with pOAD- or pGAD-based preys; growth of diploids on SC-Leu-Ura-His (with 3 mM 3-AT for Bmh1) or SC-Leu-Ura-Ade at 30°C for 3 days.
In test [2] the target is PMT-Venus-Rho3^Q74L (from pVC1-PMT-RHO3^Q74L) (S. cerevisiae). Nature of the test: split reporter; BiFC with Venus-N (pVN1) and Venus-C (pVC1) fusions under the MET25 promoter in strain JGY3088 (kin1Δ kin2Δ); SC-His-Ura plate, 30°C, 16 hr; green fluorescence by microscopy.

B1: Pea2 (Gal4 activation domain fusion from pGAD-PEA2) (protein, UniProt P40091 1-420)
chain: MHKFDLELSRRANPLLFSAERYEEYPLKYDELKQYLLSQNPSHPHHNSRPYTSIDYFDYLLYRSKNDESEIDLDKKLVSEFALYYVQKEHLNSDDLNPTLNELLKLQPKSADWYEMMLRILESINTTGIDQLTKENNNSFPNSKRARSSTNMGGTDKFNKGAYHTDKADDDKNEILQELTSFLMSNSIQKGIDIKPIPLDDPVKFLKNGINSILDTCVSLEKNTSSPPISPNAAAIQEEDSSKKLEELETAFSDLQLAHNFLTKQFENDRAEYVQDIEKLTRTNRELQDKLLNNHSNLSKTEKKLHELEQENKELEKANNKLNSSRHNFGMSSPASSPVTWDPSSPSSVGSPTSGSGSRSLSIMTSEFKKVLTSTQRKYEKELSDEREHRFKLERELALLKNAEANTSLALNRDDPPDML
Take B1: in test [1], the binding result was “no binding”.

B2: Cdc11^72-415 (N-terminally truncated Cdc11), Gal4 activation domain fusion from pOAD (domain or fragment, UniProt P32458 72-415)
chain: TVELEDDEGVKIQLNIIDTPGFGDSLDNSPSFEIISDYIRHQYDEILLEESRVRRNPRFKDGRVHCCLYLINPTGHGLKEIDVEFIRQLGSLVNIIPVISKSDSLTRDELKLNKKLIMEDIDRWNLPIYNFPFDEDEISDEDYETNMYLRTLLPFAIIGSNEVYEMGGDVGTIRGRKYPWGILDVEDSSISDFVILRNALLISHLHDLKNYTHEILYERYRTEALSGESVAAESIRPNLTKLNGSSSSSTTTRRNTNPFKQSNNINNDVLNPASDMHGQSTGENNETYMTREEQIRLEEERLKAFEERVQQELLLKRQELLQREKELREIEARLEKEAKIKQEE
With B2, in test [1], the binding result is listed as “no binding”.

B3: Kin2-C9 (a.a. 882–1147, TD2 domain), Venus-N fusion from pVN1-KIN2-C9 (domain or fragment, UniProt P13186 882-1147)
chain: RLTSVYSQELTEKQILEEASKAPPGSMPSIDYPKSMFLKGFFSVQTTSSKPLPIVRHNIISVLTRMNIDFKEVKGGFICVQQRPSIETAAVPVITTTGVGLDSGKAMDLQNSLDSQLSSSYHSTASSASRNSSIKRQGSYKRGQNNIPLTPLATNTHQRNSSIPMSPNYGNQSNGTSGELSSMSLDYVQQQDDILTTSRAQNINNVNGQTEQTNTSGIKERPPIKFEIHIVKVRIVGLAGVHFKKVSGNTWLYKELASYILKELNL
As to B3, the binding result in test [2] is reported as “binds”.
